Assay results published in patent US7534761B1, “Charged peptide-amphiphile solutions and self-assembled peptide nanofiber networks formed therefrom” (North Western University, priority 2002, dated 2009).

Columns and labels:
[1] = Mineralization of bulk PA gel (TEM, electron diffraction); conditions: 0.05% PA, Na2HPO4 1.2 mM, 20 μL 0.25M CaCl2
[2] = Mineralization of peptide amphiphile coated Ti surfaces (2 mM CaCl2, 1.2 mM Na2HPO4)

In the case of “C16H31O-CCCCGGGSS(P)DS(P)D (CCCCGGGSSDSD; C16 alkyl tail; phosphoserines) [SEQ ID NO 1, peptide amphiphile: alkyl tail C16H31O, structural peptide CCCCGGG, functional peptide SS*DS*D]”, the “mineral formed in bulk gel (TEM)” value [1] is reported as “nanocrystals of calcium phosphate”, the “orientation of crystals in bulk gel (electron diffraction)” value [1] is reported as “preferentially aligned along their c-axes” and the “hydroxyapatite crystals on coated titanium foil compared to mineralized titanium foil controls” value ([2]; 1 hr and 24 hr mineralizations) is reported as “fewer hydroxyapatite crystals”. The “hydroxyapatite crystal formation, 0.05% solution compared with 0.1% solution dried on titanium foil” value ([2]; coating concentration 0.05% vs 0.1%) was “slightly greater”.
